Measurements as given in the supplement of paper PMC10849652.
This is one part of the list.

Protein sequences, listed by entry. Tags and fused reporters are not part of them. Lines headed by an entry give the natural chain unless they say otherwise; changes in a name come on top.
UniProt Q9Y5Y5: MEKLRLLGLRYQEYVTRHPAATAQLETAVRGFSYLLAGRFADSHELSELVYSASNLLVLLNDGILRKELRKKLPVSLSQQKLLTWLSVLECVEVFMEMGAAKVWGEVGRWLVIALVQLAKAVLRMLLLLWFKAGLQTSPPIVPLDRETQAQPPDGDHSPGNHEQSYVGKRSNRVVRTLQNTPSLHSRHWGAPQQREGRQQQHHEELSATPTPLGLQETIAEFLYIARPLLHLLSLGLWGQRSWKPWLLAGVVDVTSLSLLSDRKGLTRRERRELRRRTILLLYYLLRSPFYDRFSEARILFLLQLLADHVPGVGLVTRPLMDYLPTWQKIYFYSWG
UniProt Q8NEN9: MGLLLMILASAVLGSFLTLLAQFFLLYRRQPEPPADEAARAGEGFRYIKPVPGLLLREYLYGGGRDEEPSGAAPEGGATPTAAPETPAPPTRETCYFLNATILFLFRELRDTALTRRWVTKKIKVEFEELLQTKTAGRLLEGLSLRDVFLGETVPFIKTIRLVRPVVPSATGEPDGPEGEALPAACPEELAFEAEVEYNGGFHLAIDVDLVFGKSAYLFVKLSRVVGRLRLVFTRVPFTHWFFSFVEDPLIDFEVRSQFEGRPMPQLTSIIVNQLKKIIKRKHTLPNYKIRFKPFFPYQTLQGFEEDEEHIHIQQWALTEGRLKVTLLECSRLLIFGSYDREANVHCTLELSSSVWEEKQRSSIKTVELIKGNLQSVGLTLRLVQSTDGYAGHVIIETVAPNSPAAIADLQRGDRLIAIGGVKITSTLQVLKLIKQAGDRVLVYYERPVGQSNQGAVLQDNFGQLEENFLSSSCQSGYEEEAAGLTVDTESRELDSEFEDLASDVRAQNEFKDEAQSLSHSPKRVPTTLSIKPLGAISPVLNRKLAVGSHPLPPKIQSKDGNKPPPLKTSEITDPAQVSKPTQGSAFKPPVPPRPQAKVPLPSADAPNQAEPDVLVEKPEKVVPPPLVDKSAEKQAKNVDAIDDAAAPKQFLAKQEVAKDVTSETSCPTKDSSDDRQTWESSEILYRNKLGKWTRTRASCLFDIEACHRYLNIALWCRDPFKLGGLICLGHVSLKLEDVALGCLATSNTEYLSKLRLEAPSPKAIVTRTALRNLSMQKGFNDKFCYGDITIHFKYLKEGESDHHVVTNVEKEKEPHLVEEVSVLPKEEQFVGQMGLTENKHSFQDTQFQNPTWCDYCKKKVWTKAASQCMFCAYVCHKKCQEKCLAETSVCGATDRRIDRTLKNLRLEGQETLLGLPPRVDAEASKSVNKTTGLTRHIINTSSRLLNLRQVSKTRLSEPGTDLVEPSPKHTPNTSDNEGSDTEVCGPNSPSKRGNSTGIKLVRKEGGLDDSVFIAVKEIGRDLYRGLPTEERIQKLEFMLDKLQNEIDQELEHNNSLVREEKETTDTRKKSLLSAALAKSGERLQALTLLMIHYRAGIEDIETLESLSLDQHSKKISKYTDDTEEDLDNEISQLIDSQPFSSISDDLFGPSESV
UniProt O60825: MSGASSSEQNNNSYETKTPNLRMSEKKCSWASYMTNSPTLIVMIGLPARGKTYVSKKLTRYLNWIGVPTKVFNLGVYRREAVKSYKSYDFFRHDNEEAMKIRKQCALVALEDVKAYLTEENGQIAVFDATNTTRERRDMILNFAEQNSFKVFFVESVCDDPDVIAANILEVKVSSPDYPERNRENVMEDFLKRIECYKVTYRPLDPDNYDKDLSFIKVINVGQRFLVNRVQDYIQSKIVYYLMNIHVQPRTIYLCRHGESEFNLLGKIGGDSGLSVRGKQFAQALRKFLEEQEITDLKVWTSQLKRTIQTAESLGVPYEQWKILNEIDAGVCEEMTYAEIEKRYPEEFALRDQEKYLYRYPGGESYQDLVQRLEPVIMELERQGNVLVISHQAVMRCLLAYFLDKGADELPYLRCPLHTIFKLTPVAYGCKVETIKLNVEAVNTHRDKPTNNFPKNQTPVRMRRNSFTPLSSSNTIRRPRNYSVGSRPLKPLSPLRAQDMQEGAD
UniProt O15067: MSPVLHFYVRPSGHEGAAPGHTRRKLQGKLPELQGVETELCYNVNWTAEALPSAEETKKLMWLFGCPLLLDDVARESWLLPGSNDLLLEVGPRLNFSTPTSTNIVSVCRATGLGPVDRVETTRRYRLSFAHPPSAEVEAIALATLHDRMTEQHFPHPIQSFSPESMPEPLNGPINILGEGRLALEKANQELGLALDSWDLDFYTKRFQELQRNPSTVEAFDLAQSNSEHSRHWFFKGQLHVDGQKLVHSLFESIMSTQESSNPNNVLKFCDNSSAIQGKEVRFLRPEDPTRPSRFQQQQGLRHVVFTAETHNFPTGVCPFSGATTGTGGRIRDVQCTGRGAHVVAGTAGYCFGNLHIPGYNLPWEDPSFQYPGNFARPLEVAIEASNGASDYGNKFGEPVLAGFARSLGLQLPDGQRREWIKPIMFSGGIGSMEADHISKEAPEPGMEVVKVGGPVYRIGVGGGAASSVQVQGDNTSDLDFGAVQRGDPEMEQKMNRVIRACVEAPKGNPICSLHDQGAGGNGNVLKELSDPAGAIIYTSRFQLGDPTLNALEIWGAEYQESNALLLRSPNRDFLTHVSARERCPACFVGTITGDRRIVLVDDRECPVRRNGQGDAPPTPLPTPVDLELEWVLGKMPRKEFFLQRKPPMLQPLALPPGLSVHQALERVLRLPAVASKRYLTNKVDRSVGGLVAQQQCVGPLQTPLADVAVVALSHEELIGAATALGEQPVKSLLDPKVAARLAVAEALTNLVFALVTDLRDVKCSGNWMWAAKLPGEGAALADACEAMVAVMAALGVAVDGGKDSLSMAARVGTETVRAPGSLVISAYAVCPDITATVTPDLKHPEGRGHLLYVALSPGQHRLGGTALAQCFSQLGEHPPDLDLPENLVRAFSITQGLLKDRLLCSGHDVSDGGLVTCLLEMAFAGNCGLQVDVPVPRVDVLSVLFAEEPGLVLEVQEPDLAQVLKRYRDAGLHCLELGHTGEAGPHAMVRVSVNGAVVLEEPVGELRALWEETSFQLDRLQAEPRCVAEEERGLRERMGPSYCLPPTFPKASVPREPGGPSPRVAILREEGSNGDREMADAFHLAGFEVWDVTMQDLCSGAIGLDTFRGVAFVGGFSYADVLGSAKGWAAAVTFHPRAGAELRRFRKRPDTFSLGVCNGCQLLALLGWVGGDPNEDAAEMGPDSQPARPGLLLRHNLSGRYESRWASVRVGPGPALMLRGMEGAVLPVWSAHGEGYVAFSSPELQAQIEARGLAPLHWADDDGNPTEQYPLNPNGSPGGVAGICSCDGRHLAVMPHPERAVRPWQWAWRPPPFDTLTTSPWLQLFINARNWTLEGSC
UniProt Q5JVF3: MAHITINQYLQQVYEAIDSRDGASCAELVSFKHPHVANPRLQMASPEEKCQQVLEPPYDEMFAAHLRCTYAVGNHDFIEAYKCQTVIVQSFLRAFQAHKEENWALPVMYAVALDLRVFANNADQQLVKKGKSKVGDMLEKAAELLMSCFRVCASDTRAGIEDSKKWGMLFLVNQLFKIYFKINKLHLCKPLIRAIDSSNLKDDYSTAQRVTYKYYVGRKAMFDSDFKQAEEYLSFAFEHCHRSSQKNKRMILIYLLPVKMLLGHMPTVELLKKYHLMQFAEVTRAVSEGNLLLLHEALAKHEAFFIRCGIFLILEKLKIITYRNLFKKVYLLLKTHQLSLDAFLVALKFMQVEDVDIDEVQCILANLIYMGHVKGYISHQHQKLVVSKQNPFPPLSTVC
UniProt O15530: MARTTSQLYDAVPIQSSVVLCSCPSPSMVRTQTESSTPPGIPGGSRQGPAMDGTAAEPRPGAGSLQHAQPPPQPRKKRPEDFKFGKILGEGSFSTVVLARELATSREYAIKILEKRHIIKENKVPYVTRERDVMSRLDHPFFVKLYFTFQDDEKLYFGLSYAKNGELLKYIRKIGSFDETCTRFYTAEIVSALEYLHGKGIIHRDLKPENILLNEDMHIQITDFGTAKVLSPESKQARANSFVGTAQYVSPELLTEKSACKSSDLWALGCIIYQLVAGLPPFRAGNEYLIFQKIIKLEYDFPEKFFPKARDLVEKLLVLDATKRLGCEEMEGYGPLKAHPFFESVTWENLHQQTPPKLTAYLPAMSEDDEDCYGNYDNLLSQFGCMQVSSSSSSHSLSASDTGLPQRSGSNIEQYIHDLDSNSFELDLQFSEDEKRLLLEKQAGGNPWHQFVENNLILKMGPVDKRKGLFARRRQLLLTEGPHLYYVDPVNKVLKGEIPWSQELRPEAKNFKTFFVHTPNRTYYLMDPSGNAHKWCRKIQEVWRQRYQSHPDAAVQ
UniProt Q9UHV9, whole entry, looked up: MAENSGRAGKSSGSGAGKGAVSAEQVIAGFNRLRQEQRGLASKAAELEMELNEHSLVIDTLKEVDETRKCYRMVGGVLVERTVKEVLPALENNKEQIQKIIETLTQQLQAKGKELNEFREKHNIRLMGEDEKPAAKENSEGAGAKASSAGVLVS
UniProt O00764: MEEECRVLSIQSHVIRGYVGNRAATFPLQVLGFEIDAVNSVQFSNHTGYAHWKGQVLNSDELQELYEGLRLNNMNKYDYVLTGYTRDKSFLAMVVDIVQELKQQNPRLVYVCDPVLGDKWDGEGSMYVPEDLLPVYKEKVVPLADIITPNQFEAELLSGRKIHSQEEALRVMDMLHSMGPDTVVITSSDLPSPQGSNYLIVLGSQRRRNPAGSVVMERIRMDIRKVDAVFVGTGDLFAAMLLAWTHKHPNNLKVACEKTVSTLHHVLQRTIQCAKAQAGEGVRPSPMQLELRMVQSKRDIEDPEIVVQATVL
UniProt P52209: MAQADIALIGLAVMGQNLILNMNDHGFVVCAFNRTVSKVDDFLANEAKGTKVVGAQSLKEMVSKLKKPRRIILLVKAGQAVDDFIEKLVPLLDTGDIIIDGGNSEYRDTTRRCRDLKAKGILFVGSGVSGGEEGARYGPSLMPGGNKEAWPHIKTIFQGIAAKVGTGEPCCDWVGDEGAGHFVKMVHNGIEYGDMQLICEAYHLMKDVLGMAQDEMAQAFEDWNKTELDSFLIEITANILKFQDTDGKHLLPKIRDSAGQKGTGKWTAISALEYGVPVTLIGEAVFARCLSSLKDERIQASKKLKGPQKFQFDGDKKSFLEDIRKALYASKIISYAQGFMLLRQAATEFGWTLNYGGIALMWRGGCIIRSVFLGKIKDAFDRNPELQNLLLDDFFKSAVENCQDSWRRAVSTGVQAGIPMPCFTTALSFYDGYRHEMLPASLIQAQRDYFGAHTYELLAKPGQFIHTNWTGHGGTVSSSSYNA
UniProt H7BZJ3: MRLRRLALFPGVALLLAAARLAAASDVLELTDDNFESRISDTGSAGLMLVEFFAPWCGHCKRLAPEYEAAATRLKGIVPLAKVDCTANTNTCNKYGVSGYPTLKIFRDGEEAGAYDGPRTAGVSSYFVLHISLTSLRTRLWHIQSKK
UniProt Q15365, whole entry, looked up: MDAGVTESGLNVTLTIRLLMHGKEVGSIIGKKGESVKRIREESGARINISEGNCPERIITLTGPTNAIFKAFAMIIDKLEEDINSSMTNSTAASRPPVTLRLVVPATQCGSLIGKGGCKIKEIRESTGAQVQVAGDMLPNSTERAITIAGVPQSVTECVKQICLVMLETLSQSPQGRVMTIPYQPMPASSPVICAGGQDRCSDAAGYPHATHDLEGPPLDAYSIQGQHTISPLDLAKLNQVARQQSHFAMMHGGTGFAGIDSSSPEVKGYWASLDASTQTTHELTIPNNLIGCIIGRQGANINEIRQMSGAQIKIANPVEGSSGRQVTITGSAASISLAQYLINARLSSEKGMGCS
UniProt Q15366, whole entry, looked up: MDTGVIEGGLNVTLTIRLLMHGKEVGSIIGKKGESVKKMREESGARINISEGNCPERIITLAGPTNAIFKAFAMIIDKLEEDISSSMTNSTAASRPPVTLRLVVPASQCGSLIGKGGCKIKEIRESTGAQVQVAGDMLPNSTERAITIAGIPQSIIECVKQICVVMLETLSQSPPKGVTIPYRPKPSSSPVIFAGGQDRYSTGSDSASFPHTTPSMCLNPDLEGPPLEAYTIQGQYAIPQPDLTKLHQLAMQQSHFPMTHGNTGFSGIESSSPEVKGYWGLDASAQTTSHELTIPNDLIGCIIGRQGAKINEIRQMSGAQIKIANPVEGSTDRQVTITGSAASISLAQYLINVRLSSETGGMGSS
UniProt P40425: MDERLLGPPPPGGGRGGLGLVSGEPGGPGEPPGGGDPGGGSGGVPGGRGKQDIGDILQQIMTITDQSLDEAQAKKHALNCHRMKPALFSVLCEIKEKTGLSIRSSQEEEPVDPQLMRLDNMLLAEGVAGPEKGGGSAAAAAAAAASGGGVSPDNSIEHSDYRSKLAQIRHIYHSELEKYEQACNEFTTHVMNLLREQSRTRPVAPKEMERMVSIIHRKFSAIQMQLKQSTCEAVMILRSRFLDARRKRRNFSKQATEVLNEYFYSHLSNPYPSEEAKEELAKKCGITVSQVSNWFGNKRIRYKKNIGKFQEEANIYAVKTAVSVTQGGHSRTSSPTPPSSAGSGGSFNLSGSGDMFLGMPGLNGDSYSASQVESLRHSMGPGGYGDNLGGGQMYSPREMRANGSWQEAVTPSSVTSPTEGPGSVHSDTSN

Assays:
Assay in all cases: log2 fold change, soluble protein after heating vs DMSO (PISA); higher = thermal stabilisation; K562 lysate, 10 uM; active = over 0.2 and 3.5 SD of the protein, either way, in both replicates (recomputed)
erlotinib = compound: C#Cc1cccc(Nc2ncnc3cc(OCCOC)c(OCCOC)cc23)c1 [erlotinib]
Method in brief: (§1)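 K562 pellets were dounce-homogenised in PBS pH 7.4 with 1 mM MgCl2, and the crude extract at 1 mg/mL protein was treated with 10 μM compound for 30 min. Aliquots were heated for 3 min across 48°C-58°C, pooled, and brought to 0.5% NP-40 at 4°C; soluble protein was the supernatant after 21,000xg for 90 min. Soluble protein was quantified by TMTpro 16plex LC-MS/MS with channel sums equalised, and reported as log2 fold change in thermal stability against DMSO controls, with values from duplicates.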

[1] = compound: C/C(=N\NC(=O)C1=CC(=CC=C1)S(=O)(=O)N2CCOCC2)/C3=C(C=CC(=C3)Cl)O
Method in brief: as §1

[2] = compound: C1=CC(=CC=C1C2=NC3=C(N2)C=C(C=C3)C(=O)N)OC4=CC=C(C=C4)Cl
Method in brief: as §1

[3] = compound: C1=CC2=C(C=CC(=C2)/C=C\3/C(=O)NC(=NCC4=CC=CS4)S3)N=C1
Method in brief: as §1

[4] = compound: C1=CC2=NC=CN=C2C=C1/C=C/3\C(=O)NC(=O)S3
Method in brief: as §1

[5] = compound: C1=CC=C(C=C1)C2=NC(=C(N2)C3=CC=NC=C3)C4=CC(=C(C=C4)Cl)O
Method in brief: as §1

[6] = compound: C1=CC=C2C(=C1)C3=NNC4=CC=CC(=C43)C2=O
Method in brief: as §1

[7] = compound: C1CCN(C1)C(=O)NC2=CC=CC(=C2)NC3=NC=C(C(=N3)NCCC4=CN=CN4)Br
Method in brief: as §1

[8] = compound: C1CN(CCC1(CC2=CC=C(C=C2)Cl)N)C3=NC=NC4=C3C=CN4
Method in brief: as §1

IRAK-1-4 Inhibitor I = compound: C1COCCN1CCN2C3=CC=CC=C3N=C2NC(=O)C4=CC(=CC=C4)[N+](=O)[O-] [IRAK-1-4 Inhibitor I]
Method in brief: as §1

ibrutinib = compound: C=CC(=O)N1CCC[C@@H](n2nc(-c3ccc(Oc4ccccc4)cc3)c3c(N)ncnc32)C1 [ibrutinib]
Method in brief: as §1

[9] = compound: CC(=O)c1cnc2ccc(-c3cc(Cl)c(O)c(Cl)c3)nc2c1N[C@H]1CC[C@H](CN(C)C)CC1
Method in brief: as §1

ralimetinib = compound: CC(C)(C)Cn1c(N)nc2ccc(-c3[nH]c(C(C)(C)C)nc3-c3ccc(F)cc3)nc21 [ralimetinib]
Method in brief: as §1

[10] = compound: CC(C)(O)CC(=O)NCCn1ccc2ncnc(Nc3ccc(Oc4cccc(C(F)(F)F)c4)c(Cl)c3)c21
Method in brief: as §1

[11] = compound: CC(C)C1=C2N=C(C=C(N2N=C1)NCC3=CC=CC=C3)NCCCCCCN
Method in brief: as §1

[12] = compound: CC1=C(C(CC(=O)N1)C2=CC=C(C=C2)C(F)(F)F)C(=O)NC3=C(C=C4C(=C3)C=NN4)F
Method in brief: as §1

[13] = compound: CC1=C(C2=C(C=C1)C(=O)C3=CC=CC=C3N2CCCN)C
Method in brief: as §1

[14] = compound: CC1=C(C=C(C=C1)NC(=O)C2=CC(=CC=C2)C(C)(C)C#N)NC3=CC4=C(C=C3)N=CN(C4=O)C
Method in brief: as §1

[15] = compound: CC1=C(C=C(C=C1)NC(=O)C2=CC(=CC=C2)N(C)C)NC(=O)C3=CC=C(C=C3)O
Method in brief: as §1

[16] = compound: CC1=CC=C(C=C1)SC2=C3C=C(SC3=CN=C2)C(=O)N
Method in brief: as §1

Measured: log2 fold change

PEX16 isoform 2 (UniProt Q9Y5Y5)
inactive: erlotinib 0.032 | [1] 0.233 | [2] -0.173 | [3] 0.048 | [4] -0.09 | [5] -0.06 | [6] 0.01 | [7] 0.119 | [8] -0.114 | IRAK-1-4 Inhibitor I -0.005 | ibrutinib 0.02 | [9] -0.028 | ralimetinib 0.025 | [10] -0.06 | [11] -0.033 | [12] 0.074 | [13] -0.012 | [14] -0.07 | [15] 0.03 | [16] 0.016

PDZD8 (UniProt Q8NEN9)
inactive: erlotinib -0.021 | [1] -0.093 | [2] -0.036 | [3] 0.113 | [4] 0.031 | [5] -0.012 | [6] -0.093 | [7] 0.007 | [8] 0.036 | IRAK-1-4 Inhibitor I 0.015 | ibrutinib -0.047 | [9] -0.001 | ralimetinib 0.011 | [10] -0.008 | [11] -0.013 | [12] 0.059 | [13] -0.064 | [14] -0.027 | [15] 0.002 | [16] -0.02

PFKFB2 (UniProt O60825)
inactive: erlotinib -0.007 | [1] -0.012 | [2] 0.03 | [3] -0.004 | [4] 0.005 | [5] -0.02 | [6] 0.02 | [7] -0.004 | [8] 0.002 | IRAK-1-4 Inhibitor I -0.001 | ibrutinib -0.007 | [9] -0.014 | ralimetinib 0.035 | [10] -0.017 | [11] -0.016 | [12] 0.006 | [13] -0.001 | [14] -0.013 | [15] -0.011 | [16] -0.001

PFAS (UniProt O15067)
inactive: erlotinib 0.014 | [1] 0.03 | [2] 0.006 | [3] 0.015 | [4] 0.011 | [5] -0.017 | [6] -0.018 | [7] -0.026 | [8] 0.001 | IRAK-1-4 Inhibitor I -0.006 | ibrutinib -0.007 | [9] -0.016 | ralimetinib 0.03 | [10] 0.006 | [11] 0.003 | [12] -0.015 | [13] -0.003 | [14] -0.041 | [15] 0.032 | [16] 0.002

PCID2 (UniProt Q5JVF3)
inactive: erlotinib -0.014 | [1] -0.026 | [2] 0.007 | [3] -0.033 | [4] -0.003 | [5] -0.039 | [6] -0.044 | [7] -0.05 | [8] 0.065 | IRAK-1-4 Inhibitor I 0.005 | ibrutinib 0.041 | [9] 0.023 | ralimetinib 0.03 | [10] -0.069 | [11] 0.024 | [12] 0.052 | [13] 0.013 | [14] -0.023 | [15] -0.003 | [16] -0.002

PDPK1 (UniProt O15530)
active: [7] 0.552
inactive: erlotinib -0.066 | [1] -0.007 | [2] -0.081 | [3] -0.047 | [4] -0.055 | [5] 0.005 | [6] 0.298 | [8] 0.019 | IRAK-1-4 Inhibitor I 0.018 | ibrutinib 0.026 | [9] 0.236 | ralimetinib 0.067 | [10] -0.075 | [11] 0.021 | [12] 0.163 | [13] -0.034 | [14] -0.056 | [15] -0.006 | [16] -0.021

PFDN2 (UniProt Q9UHV9)
inactive: erlotinib -0.055 | [1] -0.003 | [2] -0.038 | [3] 0.006 | [4] 0 | [5] -0.027 | [6] 0.071 | [7] 0.043 | [8] -0.026 | IRAK-1-4 Inhibitor I -0.015 | ibrutinib 0.103 | [9] 0.006 | ralimetinib 0.08 | [10] 0.08 | [11] 0.005 | [12] 0.016 | [13] 0.034 | [14] -0.017 | [15] -0.033 | [16] -0.022

PDCD4 (UniProt Q53EL6)
inactive: erlotinib 0 | [1] -0.052 | [2] -0.02 | [3] -0.003 | [4] -0.004 | [5] -0.026 | [6] 0.014 | [7] -0.011 | [8] 0.008 | IRAK-1-4 Inhibitor I 0.015 | ibrutinib -0.002 | [9] -0.002 | ralimetinib 0.025 | [10] -0.032 | [11] 0.007 | [12] 0.025 | [13] -0.003 | [14] 0.032 | [15] 0.007 | [16] 0.011

PDXK (UniProt O00764)
inactive: erlotinib -0.003 | [1] 0.02 | [2] 0.103 | [3] -0.019 | [4] -0.02 | [5] -0.008 | [6] 0.021 | [7] 0.037 | [8] -0.012 | IRAK-1-4 Inhibitor I 0.018 | ibrutinib 0.007 | [9] 0.014 | ralimetinib 0.01 | [10] -0.006 | [11] -0.009 | [12] 0.017 | [13] -0.058 | [14] 0.016 | [15] -0.029 | [16] -0.001

PGD (UniProt P52209)
inactive: erlotinib -0.026 | [1] -0.015 | [2] -0.005 | [3] -0.007 | [4] -0.004 | [5] 0.009 | [6] -0.026 | [7] 0.008 | [8] -0.02 | IRAK-1-4 Inhibitor I -0.004 | ibrutinib -0.011 | [9] -0.003 | ralimetinib -0.017 | [10] 0.007 | [11] 0.001 | [12] -0.009 | [13] 0.015 | [14] -0.008 | [15] 0.006 | [16] 0.007

PDIA3 (UniProt H7BZJ3)
inactive: erlotinib -0.013 | [1] -0.025 | [2] -0.092 | [3] -0.094 | [4] -0.032 | [5] 0.004 | [6] -0.115 | [7] 0.015 | [8] 0.082 | IRAK-1-4 Inhibitor I 0.211 | ibrutinib -0.006 | [9] 0.05 | ralimetinib -0.16 | [10] -0.006 | [11] -0.016 | [12] -0.032 | [13] 0.038 | [14] 0.011 | [15] -0.067 | [16] 0.003

Two successive records from above, for reference:
PDZD8 (UniProt Q8NEN9)
inactive: erlotinib -0.021 | [1] -0.093 | [2] -0.036 | [3] 0.113 | [4] 0.031 | [5] -0.012 | [6] -0.093 | [7] 0.007 | [8] 0.036 | IRAK-1-4 Inhibitor I 0.015 | ibrutinib -0.047 | [9] -0.001 | ralimetinib 0.011 | [10] -0.008 | [11] -0.013 | [12] 0.059 | [13] -0.064 | [14] -0.027 | [15] 0.002 | [16] -0.02

PFKFB2 (UniProt O60825)
inactive: erlotinib -0.007 | [1] -0.012 | [2] 0.03 | [3] -0.004 | [4] 0.005 | [5] -0.02 | [6] 0.02 | [7] -0.004 | [8] 0.002 | IRAK-1-4 Inhibitor I -0.001 | ibrutinib -0.007 | [9] -0.014 | ralimetinib 0.035 | [10] -0.017 | [11] -0.016 | [12] 0.006 | [13] -0.001 | [14] -0.013 | [15] -0.011 | [16] -0.001

The listing continues.

PARP16 isoform 3 (UniProt Q8N5Y8)
inactive: erlotinib -0.045 | [1] 0.066 | [2] -0.011 | [3] 0.097 | [4] 0.039 | [5] -0.015 | [6] -0.125 | [7] -0.089 | [8] 0.05 | IRAK-1-4 Inhibitor I 0.057 | ibrutinib -0.083 | [9] -0.039 | ralimetinib 0.019 | [10] -0.081 | [11] 0.012 | [12] -0.058 | [13] -0.078 | [14] -0.016 | [15] -0.012 | [16] 0.183

PCBP1 (UniProt Q15365)
inactive: erlotinib 0.014 | [1] 0.008 | [2] 0.011 | [3] -0.011 | [4] 0 | [5] 0.032 | [6] 0.003 | [7] -0.013 | [8] 0.002 | IRAK-1-4 Inhibitor I 0.015 | ibrutinib 0.022 | [9] 0.012 | ralimetinib -0.015 | [10] -0.014 | [11] 0.005 | [12] -0.051 | [13] -0.022 | [14] 0.061 | [15] -0.014 | [16] -0.021

PCBP2 isoform 8 (UniProt Q15366)
inactive: erlotinib 0.118 | [1] -0.287 | [2] 0.024 | [3] 0.001 | [4] -0.039 | [5] 0.087 | [6] -0.041 | [7] -0.088 | [8] 0.01 | IRAK-1-4 Inhibitor I 0.018 | ibrutinib 0.15 | [9] 0.003 | ralimetinib -0.003 | [10] -0.041 | [11] -0.005 | [12] -0.011 | [13] -0.007 | [14] 0.071 | [15] -0.05 | [16] -0.043

PBX2 (UniProt P40425)
inactive: erlotinib 0.007 | [1] -0.24 | [2] -0.031 | [3] 0.059 | [4] -0.015 | [5] 0.023 | [6] -0.048 | [7] 0.008 | [8] -0.03 | IRAK-1-4 Inhibitor I 0.005 | ibrutinib -0.012 | [9] 0.058 | ralimetinib -0.017 | [10] 0 | [11] 0.048 | [12] 0.044 | [13] -0.005 | [14] 0.052 | [15] 0.006 | [16] 0.012
